# Whole data set: some 33,000 sequences, median “E-score (-0.5 to 0.5)” near -0.016, cut for the highest 2% near 0.3. The list shows a part of the results.
# Target: T1, Yer184c (UniProt P39961)
# T1 sequence: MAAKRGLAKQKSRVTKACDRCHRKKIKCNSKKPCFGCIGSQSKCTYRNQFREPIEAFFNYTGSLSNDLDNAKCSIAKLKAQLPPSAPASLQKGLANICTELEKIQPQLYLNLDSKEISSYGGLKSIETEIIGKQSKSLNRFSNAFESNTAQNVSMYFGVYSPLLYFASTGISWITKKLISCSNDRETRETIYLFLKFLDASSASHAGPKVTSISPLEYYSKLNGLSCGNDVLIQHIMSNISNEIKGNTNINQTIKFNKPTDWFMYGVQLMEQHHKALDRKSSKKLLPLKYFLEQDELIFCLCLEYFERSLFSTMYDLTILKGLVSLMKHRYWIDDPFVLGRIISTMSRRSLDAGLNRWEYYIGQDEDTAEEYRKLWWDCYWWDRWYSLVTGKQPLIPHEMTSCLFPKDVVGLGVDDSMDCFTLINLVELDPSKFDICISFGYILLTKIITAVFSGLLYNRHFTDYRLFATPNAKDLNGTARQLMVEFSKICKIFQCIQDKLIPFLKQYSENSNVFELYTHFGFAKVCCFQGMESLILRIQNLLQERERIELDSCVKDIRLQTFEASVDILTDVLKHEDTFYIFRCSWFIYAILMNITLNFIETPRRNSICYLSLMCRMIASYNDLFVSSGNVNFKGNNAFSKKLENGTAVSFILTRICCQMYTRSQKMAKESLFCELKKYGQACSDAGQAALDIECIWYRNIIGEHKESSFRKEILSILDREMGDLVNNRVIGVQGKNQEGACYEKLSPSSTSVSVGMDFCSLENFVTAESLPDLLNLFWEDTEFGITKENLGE
# Assay: PBM E-score (8-mer binding enrichment) (E-score (-0.5 to 0.5)); higher = stronger / more preferred TF binding
# Details: protein concentration: 100 nM; construct: GST-full length
# Procedure: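 Universal 'all 10-mer' protein binding microarrays (Agilent AMADID 015681) probed with GST-tagged S. cerevisiae TFs (full-length or DBD) made by in vitro transcription/translation (PURExpress), about 100-200 nM. Bound TF was detected with fluorescent anti-GST. Each ungapped 8-mer (which stands for itself and its reverse complement) is scored by the PBM enrichment score (E-score), a modified Wilcoxon-Mann-Whitney statistic from -0.5 to +0.5, computed with the Universal PBM Analysis Suite. Scale: above 0.35 generally sequence-specific binding.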
row,Sequence,PBM E-score
1,AGGGTCGC,-0.0902
2,AATAAGCA,0.131
3,CCGGGCTC,0.288
4,ACGCCAAG,-0.211
5,AACTGGAC,-0.147
6,ACTGGGGA,-0.347
7,ATACGCAA,-0.00166
8,AGTCTTGA,-0.103
9,AAGAAGCG,-0.133
10,CGATTCAC,-0.0394
11,AGGACACG,-0.159
12,AATTATCA,0.221
13,CTAACGTC,0.0536
14,CGCTGGAG,-0.0527
15,CACGAACG,0.0597
16,ACCGCCTG,-0.103
17,ATCTACCA,-0.0467
18,GAGTGACA,0.0161
19,GAGGACTA,-0.107
20,ATGCCTAA,-0.0815
21,GCGGGAAC,-0.00769
22,GATGGTGA,-0.145

row,Sequence,PBM E-score
1,CCCACCAC,-0.151
2,AACCTCCA,-0.273
3,GACTGCGA,-0.17
4,TAGATAGA,-0.0868
5,TCATTCGA,0.0699
6,CCAACGCC,-0.0839
7,ATTGCAAC,0.0297
8,AAACCGGG,0.0839
9,CAAGCTGG,-0.129
10,GCTGCTGA,0.0415
11,AGGTGCGA,-0.127
12,AGAAAGAA,0.175
13,AACTGCGA,-0.134
14,AACCCCAG,-0.279
15,CTGGAAGA,0.0137
16,ATTTTTCC,0.193
17,AACCCCCG,-0.255
18,AAAGAACC,0.165
19,GCAGCGTA,-0.112
20,AAAGGCCT,-0.253
21,AACTTTCA,0.122
22,CTGACCGA,-0.0183

# Rewritten tab-delimited: entries from further up.
row	Sequence	PBM E-score
22	GATGGTGA	-0.145
1	CCCACCAC	-0.151
2	AACCTCCA	-0.273
3	GACTGCGA	-0.17
4	TAGATAGA	-0.0868
5	TCATTCGA	0.0699
6	CCAACGCC	-0.0839
7	ATTGCAAC	0.0297
8	AAACCGGG	0.0839
9	CAAGCTGG	-0.129
10	GCTGCTGA	0.0415
11	AGGTGCGA	-0.127
12	AGAAAGAA	0.175
13	AACTGCGA	-0.134
14	AACCCCAG	-0.279
15	CTGGAAGA	0.0137
16	ATTTTTCC	0.193
17	AACCCCCG	-0.255
18	AAAGAACC	0.165
19	GCAGCGTA	-0.112

# Further records

row,Sequence,PBM E-score
1,GCTCTCCA,-0.245
2,CTAGTTCA,-0.0438
3,AGGGATAG,-0.208
4,AGATCGGC,0.194
5,TACTGATA,0.266
6,AGTCACAC,-0.207
7,CTTTTTGC,0.0194
8,AGATGTAG,-0.0564
9,ATTTAGAC,0.121
10,GCGCGTAA,-0.0129
11,ATGGAGAA,0.14
12,AGAACGGA,0.228
13,AGTCCGAC,-0.14
14,GGAAATAC,0.176
15,AGCGTTAC,-0.109
16,CCTCGACA,-0.149
17,CTGTCAGA,-0.0932
18,CTACAGTA,-0.133
19,CTGCAATC,0.0432
20,ATCCGTAG,0.0954
21,TAAGATGA,-0.111
22,GACAATAC,0.146

row,Sequence,PBM E-score
1,AGTCGTTC,-0.00059
2,AGATGGAT,-0.238
3,ACTCAAAA,0.0736
4,CACCTCGA,0.188
5,ATTCTTAC,0.205
6,CCCAGGTC,-0.431
7,CCTGCGCC,-0.183
8,ATTAGAGG,-0.0936
9,TCACTGAA,0.0275
10,AAAACTCG,0.208
11,CATCTCTC,0.00431
12,CCCCAGAC,-0.31
13,ACGCAACG,0.17
14,ATATAGAC,0.191
15,CACCGTAA,0.0695
16,ACTCGAAT,-0.0582
17,CGTAGCGA,0.0394
18,ATTCTCCG,0.213
19,AAACACGA,0.0634
20,AGATTATA,0.0366

# From the supplement of paper PMC3334620
